Reference: article PMC3266240
No constants are given. Whether binding was seen depends on the method and setting. In cells and extracts the contact can be indirect. Some results given as binding are weak or reduced against the parent protein; the word gives no strength.

Chains of the proteins cited; added tags and fusions are not shown. Lines headed by an entry give the natural chain unless they say otherwise; changes in a name come on top. Residues count along the entry.
UniProt Q9HB71, residues 1-177: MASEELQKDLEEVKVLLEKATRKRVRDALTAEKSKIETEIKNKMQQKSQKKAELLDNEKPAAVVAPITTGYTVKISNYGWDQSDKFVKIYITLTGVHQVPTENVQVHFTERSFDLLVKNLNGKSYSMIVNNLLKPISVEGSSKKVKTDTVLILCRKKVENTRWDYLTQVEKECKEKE
UniProt P63208: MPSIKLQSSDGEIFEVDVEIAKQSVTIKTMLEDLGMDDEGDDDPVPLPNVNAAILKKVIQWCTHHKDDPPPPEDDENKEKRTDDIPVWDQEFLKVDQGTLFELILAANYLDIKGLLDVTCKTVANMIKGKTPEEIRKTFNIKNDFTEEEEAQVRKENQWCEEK

B1: Siah1 (protein, UniProt Q8IUQ4 1-282)
chain: MSRQTATALPTGTSKCPPSQRVPALTGTTASNNDLASLFECPVCFDYVLPPILQCQSGHLVCSNCRPKLTCCPTCRGPLGSIRNLAMEKVANSVLFPCKYASSGCEITLPHTEKADHEELCEFRPYSCPCPGASCKWQGSLDAVMPHLMHQHKSITTLQGEDIVFLATDINLPGAVDWVMMQSCFGFHFMLVLEKQEKYDGHQQFFAIVQLIGTRKQAENFAYRLELNGHRRRLTWEATPRSIHEGIATAIMNSDCLVFDTSIAQLFAENGNLGINVTISMC

Molecular target: CacyBP/SIPΔS100 (C-terminal deletion aa178-229 mutant of CacyBP/SIP, FLAG-tagged) (UniProt Q9HB71)
Test: co-IP; lysates of stable MKN45 transfectants (20 mM Tris-HCl pH 7.5, 8 mM MgCl2, 150 mM NaCl, 0.2 mM EGTA, 1% Nonidet P-40); precipitated with serum containing antibodies against CacyBP/SIP and protein A/G-Sepharose at 4°; washes up to 500 mM NaCl; western blot of the partner

Molecule	binding
Skp1 (from UniProt P63208 1-163)	binds
B1	binds
